Data as given in paper PMC3961280.

Sequences of proteins named here, by UniProt entry; tags and fusion partners are left off. A change or cut given only in a name is not applied to a line headed by its entry.
UniProt Q584V9: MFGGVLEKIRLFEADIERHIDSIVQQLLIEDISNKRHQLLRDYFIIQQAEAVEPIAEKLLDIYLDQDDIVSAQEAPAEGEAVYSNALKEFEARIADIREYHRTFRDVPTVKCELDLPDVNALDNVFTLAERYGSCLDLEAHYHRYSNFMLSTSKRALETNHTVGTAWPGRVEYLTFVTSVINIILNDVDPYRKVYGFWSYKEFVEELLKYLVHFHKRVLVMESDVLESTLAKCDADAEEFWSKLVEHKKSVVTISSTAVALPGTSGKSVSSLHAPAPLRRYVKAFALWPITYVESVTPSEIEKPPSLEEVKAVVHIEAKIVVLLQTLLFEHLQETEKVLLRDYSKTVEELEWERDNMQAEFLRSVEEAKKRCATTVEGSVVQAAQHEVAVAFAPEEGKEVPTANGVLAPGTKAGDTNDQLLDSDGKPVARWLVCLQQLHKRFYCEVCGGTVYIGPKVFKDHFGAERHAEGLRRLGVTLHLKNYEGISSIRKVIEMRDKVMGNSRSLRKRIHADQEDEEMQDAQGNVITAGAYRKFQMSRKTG
UniProt Q586K6: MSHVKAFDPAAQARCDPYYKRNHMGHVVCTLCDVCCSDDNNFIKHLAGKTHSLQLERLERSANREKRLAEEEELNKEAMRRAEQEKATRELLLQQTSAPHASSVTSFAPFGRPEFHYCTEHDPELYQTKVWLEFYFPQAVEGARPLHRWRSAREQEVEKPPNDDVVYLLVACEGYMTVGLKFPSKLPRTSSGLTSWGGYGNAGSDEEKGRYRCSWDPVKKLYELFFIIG
UniProt Q57WZ5: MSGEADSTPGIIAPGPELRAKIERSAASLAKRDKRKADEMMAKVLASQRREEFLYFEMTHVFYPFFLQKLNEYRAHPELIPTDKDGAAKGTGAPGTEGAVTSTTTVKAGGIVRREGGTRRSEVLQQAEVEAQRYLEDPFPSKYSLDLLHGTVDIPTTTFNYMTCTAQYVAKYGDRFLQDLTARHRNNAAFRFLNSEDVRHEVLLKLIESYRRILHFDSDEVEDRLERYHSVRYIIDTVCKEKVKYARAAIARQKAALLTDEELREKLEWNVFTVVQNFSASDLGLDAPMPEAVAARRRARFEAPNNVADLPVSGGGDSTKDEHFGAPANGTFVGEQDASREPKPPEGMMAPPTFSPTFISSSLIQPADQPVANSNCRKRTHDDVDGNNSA
UniProt Q57XR8: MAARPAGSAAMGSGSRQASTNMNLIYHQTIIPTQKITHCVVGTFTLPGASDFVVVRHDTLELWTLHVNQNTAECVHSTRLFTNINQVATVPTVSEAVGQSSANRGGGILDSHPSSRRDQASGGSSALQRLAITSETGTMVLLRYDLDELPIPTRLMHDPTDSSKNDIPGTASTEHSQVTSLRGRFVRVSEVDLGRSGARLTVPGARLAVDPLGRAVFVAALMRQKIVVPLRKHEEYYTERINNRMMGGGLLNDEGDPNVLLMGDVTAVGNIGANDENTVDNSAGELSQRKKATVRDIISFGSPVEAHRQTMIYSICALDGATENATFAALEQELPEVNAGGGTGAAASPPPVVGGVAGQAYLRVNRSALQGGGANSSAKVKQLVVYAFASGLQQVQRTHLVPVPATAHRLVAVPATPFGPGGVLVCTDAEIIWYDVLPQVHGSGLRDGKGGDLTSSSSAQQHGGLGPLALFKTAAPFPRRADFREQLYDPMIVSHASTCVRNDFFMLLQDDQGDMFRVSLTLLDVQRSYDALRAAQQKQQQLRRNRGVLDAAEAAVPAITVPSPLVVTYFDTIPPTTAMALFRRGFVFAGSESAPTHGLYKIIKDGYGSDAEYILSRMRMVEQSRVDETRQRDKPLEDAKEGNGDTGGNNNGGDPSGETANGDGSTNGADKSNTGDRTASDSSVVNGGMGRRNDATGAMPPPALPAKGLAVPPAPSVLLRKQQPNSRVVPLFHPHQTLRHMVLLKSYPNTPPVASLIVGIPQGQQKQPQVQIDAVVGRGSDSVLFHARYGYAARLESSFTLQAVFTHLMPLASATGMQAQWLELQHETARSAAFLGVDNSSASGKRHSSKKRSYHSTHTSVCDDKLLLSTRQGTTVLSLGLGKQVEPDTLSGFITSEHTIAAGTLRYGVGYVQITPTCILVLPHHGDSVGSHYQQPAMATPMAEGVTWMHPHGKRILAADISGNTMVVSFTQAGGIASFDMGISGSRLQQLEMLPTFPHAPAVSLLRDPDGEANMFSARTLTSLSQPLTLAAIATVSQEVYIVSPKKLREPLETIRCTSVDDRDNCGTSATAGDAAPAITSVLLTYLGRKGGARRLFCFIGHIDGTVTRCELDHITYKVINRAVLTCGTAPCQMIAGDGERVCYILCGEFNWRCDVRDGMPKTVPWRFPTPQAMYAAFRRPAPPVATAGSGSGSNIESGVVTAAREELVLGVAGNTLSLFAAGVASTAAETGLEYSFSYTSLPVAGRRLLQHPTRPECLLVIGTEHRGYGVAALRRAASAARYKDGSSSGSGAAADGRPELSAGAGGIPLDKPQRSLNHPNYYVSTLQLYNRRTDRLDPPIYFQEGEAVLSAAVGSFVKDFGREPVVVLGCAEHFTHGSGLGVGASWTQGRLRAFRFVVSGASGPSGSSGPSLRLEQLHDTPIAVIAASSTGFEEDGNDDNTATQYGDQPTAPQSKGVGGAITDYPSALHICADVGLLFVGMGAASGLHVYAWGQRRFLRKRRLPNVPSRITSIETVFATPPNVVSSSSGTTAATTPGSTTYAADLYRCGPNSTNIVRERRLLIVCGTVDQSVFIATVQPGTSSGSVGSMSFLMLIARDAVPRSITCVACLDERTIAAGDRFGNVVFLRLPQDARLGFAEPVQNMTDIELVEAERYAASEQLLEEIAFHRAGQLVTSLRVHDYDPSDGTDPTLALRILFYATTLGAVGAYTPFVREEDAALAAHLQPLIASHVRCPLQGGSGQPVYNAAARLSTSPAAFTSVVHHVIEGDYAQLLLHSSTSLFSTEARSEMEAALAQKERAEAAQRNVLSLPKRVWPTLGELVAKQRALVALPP

Biological target: C-terminally TAP-tagged T. brucei SF3a60 (Trypanosoma brucei (strain Lister 427)) (UniProt Q584V9)
Experiment: affinity purification with mass spectrometry; tandem affinity purification of C-terminally TAP-tagged SF3a60 from procyclic T. brucei (100 ng/ml tetracycline, 24 h); 12% SDS-PAGE, SYPRO Ruby; strongly stained bands excised and identified by nano-HPLC ESI-QUAD TOF MS; TAP tag alone as control

| Substance | binding |
| --- | --- |
| T. brucei SF3a66 (Tb927.2.2270) (from UniProt Q586K6) | binds |
| T. brucei SF3a120 (Tb927.3.1140) (from UniProt Q57WZ5) | binds |
| T. brucei SF3b130 (Tb927.7.6980) (from UniProt Q57XR8) | binds |

These are yes or no findings as the source states them, for the method shown. In cells and extracts the contact can be indirect. A yes stands for co-enrichment or nearness to the bait. Other partners may have been found.
